Data as given in PubChem BioAssay AID504793 (Drosophila RNAi Screening Center, 2011)
The screen tested about 23,000 reagents; below is an unselected part of those with a known target gene and a result. In the full data, 62 (0.27%) were called active. 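Calls come from follow-up tests whose scores are not deposited, so confirmed genes may have low counts here; counts are not normalised per plate.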 The raw values are shown without normalisation. A number with no mark means an inactive call. Reagents against one gene are numbered here. A plus sign joins genes that one reagent is predicted to hit. Reagent sequences are not shown.

Aim: 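Genes required for cells to halt at G2/M after double-strand DNA breaks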 (primary screen)
Cells: Drosophila S2R+ cells
Reagent: long dsRNA against Drosophila genes, about 0.25 µg dsRNA per well
Time to read-out: 4 days of dsRNA, then 4 hours of drug before read-out
Treatment: doxorubicin 0.5 µM for 4 hours to cause double-strand breaks, in cells also given a low, harmless dose of dsRNA against nbs to sensitise the assay
Measurement: 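Mitotic index as the number of phospho-histone H3-positive cells in each well following doxorubicin, given as raw counts without normalisation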
Scale: mitotic cells: higher = more cells in mitosis, weaker G2 arrest
Rule for the call: 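a call needs confirmation in secondary tests, with other dsRNAs and a check of mitotic timing without damage, not just a high primary count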
Meaning of the calls: active = confirmed in follow-up tests; inactive = not confirmed

Grx5 (Glutaredoxin 5): mitotic cells, replicate 1 = 8
CG14662: mitotic cells, replicate 1 = 1
CG10621: mitotic cells, replicate 1 = 1
fabp + sea #1: mitotic cells, replicate 1 = 12
fabp + sea #2: mitotic cells, replicate 1 = 4
Crys (Crystallin) #1: mitotic cells, replicate 1 = 8
Crys (Crystallin) #2: mitotic cells, replicate 1 = 5
IntS10 (Integrator 10): mitotic cells, replicate 1 = 3
CG33937 (retired record): mitotic cells, replicate 1 = 1
Sou (Souji): mitotic cells, replicate 1 = 2
Gdap2 #1: mitotic cells, replicate 1 = 5
Gdap2 #2: mitotic cells, replicate 1 = 7
Klf15 (Kruppel-like factor 15): mitotic cells, replicate 1 = 10
CG15728 #1: mitotic cells, replicate 1 = 2
CG15728 #2: mitotic cells, replicate 1 = 12
CG15728 #3: mitotic cells, replicate 1 = 5
mib2 (mind bomb 2): mitotic cells, replicate 1 = 2
Adsl (Adenylosuccinate lyase): mitotic cells, replicate 1 = 14
Aps (Aps pyrophosphatase): mitotic cells, replicate 1 = 10
Antp (Antennapedia) #1: mitotic cells, replicate 1 = 11
Antp (Antennapedia) #2: mitotic cells, replicate 1 = 4
Fibp #1: mitotic cells, replicate 1 = 7
Fibp #2: mitotic cells, replicate 1 = 11
Naa60 (N(alpha)-acetyltransferase 60) #1: mitotic cells, replicate 1 = 4
Naa60 (N(alpha)-acetyltransferase 60) #2: mitotic cells, replicate 1 = 9
Sirt1 (Sirtuin 1): mitotic cells, replicate 1 = 3
CG14851 #1: mitotic cells, replicate 1 = 4
CG14851 #2: mitotic cells, replicate 1 = 7
CG14851 #3: mitotic cells, replicate 1 = 8
CycB3 (Cyclin B3): mitotic cells, replicate 1 = 18
CG14564 #1: mitotic cells, replicate 1 = 7
CG14564 #2: mitotic cells, replicate 1 = 9
Mi-2 #1: mitotic cells, replicate 1 = 10
Mi-2 #2: mitotic cells, replicate 1 = 8

Look-ups from above.
CG10621, mitotic cells, replicate 1 = 1
Antp (Antennapedia) #2, mitotic cells, replicate 1 = 4
